No constants are given. Whether binding was seen depends on the method and setting. Some results given as binding are weak or reduced against the parent protein; the word gives no strength.

Protein sequences, listed by entry. Tags and fused reporters are not part of them. Residues count along the entry.
UniProt P01012, residues 2-386: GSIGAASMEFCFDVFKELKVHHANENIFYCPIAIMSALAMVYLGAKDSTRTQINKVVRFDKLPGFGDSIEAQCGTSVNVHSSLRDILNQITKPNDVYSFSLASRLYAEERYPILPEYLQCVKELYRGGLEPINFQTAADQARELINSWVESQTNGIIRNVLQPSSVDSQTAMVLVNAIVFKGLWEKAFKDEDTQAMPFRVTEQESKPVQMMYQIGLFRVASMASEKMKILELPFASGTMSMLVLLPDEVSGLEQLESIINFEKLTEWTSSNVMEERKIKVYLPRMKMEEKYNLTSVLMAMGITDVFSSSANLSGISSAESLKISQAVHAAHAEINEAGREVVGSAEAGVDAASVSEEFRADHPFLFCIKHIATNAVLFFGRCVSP
UniProt P00433, residues 31-338: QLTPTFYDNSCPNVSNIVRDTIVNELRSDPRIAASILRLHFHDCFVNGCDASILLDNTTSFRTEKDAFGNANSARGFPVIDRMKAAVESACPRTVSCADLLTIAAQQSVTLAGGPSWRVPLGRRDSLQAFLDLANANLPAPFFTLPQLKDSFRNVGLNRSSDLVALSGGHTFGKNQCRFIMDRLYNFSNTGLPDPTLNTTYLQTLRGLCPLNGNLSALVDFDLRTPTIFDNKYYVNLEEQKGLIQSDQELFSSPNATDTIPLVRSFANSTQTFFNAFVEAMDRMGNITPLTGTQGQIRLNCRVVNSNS

Test [1] addresses Ovalbumin (UniProt P01012). Description: Western blot, 1 µg glycoprotein, Fbs1 variant as probe. (In general: Immunoblotting shows a protein as a band on a membrane.)
For test [2], the target named is Horse Radish Peroxidase (horse radish) (UniProt P00433). The description is as above.

B1: Variant Fbs1-1 (designed binder)
chain: MGSSHHHHHHHHSSGENLYFQSHMASQQEGLVPEGSADEERDHWQQFYFLSKRRRNLLRNPCGEEDLEGWSDVEHGGDGWRVEELPGDNGVEFTQDDSVKKYFASSFEWCRKAQVIDLQAEGYWEELLDTTQPAIVVKDWYSGRTDAGSLYELTVRLLSENEDVLAEFATGQVAVPEDGSWMEISHTFIDYGPGVRFVRFEHGGQDSVYWKGWFGARVTNSSVWVEP
Consider B1, for which the binding result in test [1] and in test [2] was “binds” each time.

B2: Variant Fbs1-2 (designed binder)
chain: MGSSHHHHHHHHSSGENLYFQSHMASQQEGLVPEGSADEERDHWQQFYFLSKRRRNLLRNPCGEEDLEGWSDVEHGGDGWRVEELPGDNGVEFTQDDSVKKYFASSYRWCRKAQVIDLQAEGYWEELLDTTQPAIVVKDWYSGRTDAGSLYELTVRLLSENEDVLAEFATGQVAVPEDGSWMEISHTFIDYGPGVRFVRFEHGGQDSVYWKGWFGARVTNSSVWVEP
Turning to B2, the binding entry in test [1] and in test [2] was “binds” each time.
